Values quoted from earlier work in patent US11078216B2, “Bisaryl amides as NRF2 activators” (GLAXOSMITHKLINE INTELLECTUAL PROPERTY DEVELOPMENT LIMITED, priority 2016, dated 2021).
At least one structure is not confirmed: it was looked up by name or label, or the drawing left a doubt.

Tested on: diabetic patients with diabetic nephropathy/chronic kidney disease (CKD)
Conditions: clinic; cited from earlier work

COC(=O)[C@]12CCC(C)(C)C[C@H]1[C@H]1C(=O)C=C3[C@@]4(C)C=C(C#N)C(=O)C(C)(C)[C@@H]4CC[C@@]3(C)[C@]1(C)CC2 [bardoxolone methyl]
efficacy in diabetic nephropathy/chronic kidney disease: has shown efficacy
